# Assay results from paper PMC5719454.
# B1: Wnt8 fused with monomeric Venus (mV-Wnt8) (ligand, UniProt P28026 23-358)
# chain: AWSVNNFLMTGPKAYLTYSASVAVGAQNGIEECKYQFAWERWNCPESTLQLATHNGLRSATRETSFVHAISSAGVMYTLTRNCSMGDFDNCGCDDSRNGRIGGRGWVWGGCSDNAEFGERISKLFVDGLETGQDARALMNLHNNEAGRLAVKETMKRTCKCHGISGSCSIQTCWLQLAEFRDIGNHLKIKHDQALKLEMDKRKMRSGNSADNRGAIADAFSSVAGSELIFLEDSPDYCLKNISLGLQGTEGRECLQSGKNLSQWERRSCKRLCTDCGLRVEEKKTEIISSCNCKFHWCCTVKCEQCKQVVIKHFCARRERDSNMLNTKRKNRGHRR
# Columns and labels:
# Gpc4ΔHS mutant (Xenopus) = test: fluorescence imaging of a secreted mV-tagged protein accumulating on overexpressing cells in the embryo; Xenopus embryo; glypican or its ΔHS mutant overexpressed by mRNA injection; accumulation of the secreted mV-tagged protein on the cell membrane compared with non-expressing control cells
# [1] = molecular target: Gpc5ΔHS mutant (X. laevis); test: as above
binder,measurement,setting,value
B1,binding,Gpc4ΔHS mutant (Xenopus),no binding
same,binding,[1],no binding

# Results are given in words; binding and its absence hold for the method and conditions named. Where a sequence is shown, tags or fusion partners need not be part of it.
